Values from PubChem BioAssay AID1259405 (NCATS, 2018)

Screen: 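Silenced genes that increase secreted GFP made by CHO cells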 (primary screen)
Cell system: Chinese hamster CHO-K1 ovary cells with stable secreted eGFP expression
Knock-down reagent: single siRNA against mouse genes, 0.8 pmol siRNA per well (2 µl of 400 nM stock)
Timing: 3 days
Measured: 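Per-well intracellular GFP measured by laser scanning cytometry, plus viability from ATP luminescence, each relative to plate median of non-targeting control wells, in %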
Direction: GFP, % of control: higher = more GFP per well, higher productivity; viability (ATP), % of control: higher = more viable cells (more ATP)
Rule for the call: 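Called active when intracellular GFP, relative to negative control, is at or above 120%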
Shown is an unselected part of about 50,000 deposited reagents. Of all reagents, about 4,000 (8%) were called active. 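Mouse siRNA library applied to hamster cells; one well for each siRNA.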 Reagents against one gene are numbered here.

Against Cd1d2 #1, the entry reads GFP, % of control 44.7; viability (ATP), % of control 75.2; inactive.
Against Cd1d2 #2 the deposit lists GFP, % of control 76.8; viability (ATP), % of control 91.8; inactive.
For Cd1d2 #3, the entry reads GFP, % of control 70.4; viability (ATP), % of control 60.8; inactive.
For 2310011J03Rik #1, the entry reads GFP, % of control 175; viability (ATP), % of control 62.2; active.
Silencing of 2310011J03Rik #2 resulted in: GFP, % of control 74.5; viability (ATP), % of control 48.6; inactive.
Against 2310011J03Rik #3, the values are GFP, % of control 77.7; viability (ATP), % of control 64; inactive.
With knock-down of Pcyt1b #1 the results were GFP, % of control 114; viability (ATP), % of control 110; inactive.
After knock-down of Pcyt1b #2 the results were GFP, % of control 106; viability (ATP), % of control 74.5; inactive.
Depletion of Pcyt1b #3 gave: GFP, % of control 74.8; viability (ATP), % of control 91.1; inactive.
Against Col1a2 #1, the values are GFP, % of control 51.7; viability (ATP), % of control 36.7; inactive.
Col1a2 #2 showed GFP, % of control 115; viability (ATP), % of control 74; inactive.
Knock-down of Col1a2 #3 gave: GFP, % of control 88.8; viability (ATP), % of control 84.9; inactive.
Depletion of Hexa #1 came out at: GFP, % of control 64.9; viability (ATP), % of control 77.9; inactive.
Depletion of Hexa #2 came out at: GFP, % of control 70.3; viability (ATP), % of control 83.3; inactive.
Hexa #3 showed GFP, % of control 188; viability (ATP), % of control 77.3; active.
After knock-down of Inpp5d #1, the screen gave GFP, % of control 136; viability (ATP), % of control 106; active.
For Inpp5d #2, the values are GFP, % of control 81.5; viability (ATP), % of control 100; inactive.
Inpp5d #3 showed GFP, % of control 98.5; viability (ATP), % of control 93.9; inactive.
With knock-down of Tex48 #1 the results were GFP, % of control 105; viability (ATP), % of control 85.7; inactive.
For Tex48 #2, the entry reads GFP, % of control 86.4; viability (ATP), % of control 105; inactive.
Tex48 #3 scored GFP, % of control 112; viability (ATP), % of control 77.5; inactive.
For AI182371 #1, the entry reads GFP, % of control 61.7; viability (ATP), % of control 43.3; inactive.
Against AI182371 #2, the entry reads GFP, % of control 92.4; viability (ATP), % of control 49.5; inactive.
After knock-down of AI182371 #3 the results were GFP, % of control 42.4; viability (ATP), % of control 31.1; inactive.
For Phospho2 #1 the deposit lists GFP, % of control 121; viability (ATP), % of control 81.3; active.
Silencing of Phospho2 #2 came out at: GFP, % of control 57.9; viability (ATP), % of control 65.5; inactive.
For Phospho2 #3, the entry reads GFP, % of control 62.1; viability (ATP), % of control 81.1; inactive.
After knock-down of Qdpr #1 the results were GFP, % of control 81.7; viability (ATP), % of control 100; inactive.
Silencing of Qdpr #2 gave: GFP, % of control 39.4; viability (ATP), % of control 63.8; inactive.
Qdpr #3 showed GFP, % of control 73; viability (ATP), % of control 67; inactive.
C6 #1 gave GFP, % of control 62.7; viability (ATP), % of control 55.4; inactive.
After knock-down of C6 #2, the record shows GFP, % of control 128; viability (ATP), % of control 96.5; active.
With knock-down of C6 #3, the screen gave GFP, % of control 79.6; viability (ATP), % of control 68.6; inactive.
Against Coprs #1 the deposit lists GFP, % of control 139; viability (ATP), % of control 88.1; active.
Depletion of Coprs #2 resulted in: GFP, % of control 74.3; viability (ATP), % of control 46.3; inactive.
After knock-down of Coprs #3, the screen gave GFP, % of control 156; viability (ATP), % of control 73.5; active.
For Slc25a27 #1, the values are GFP, % of control 88.4; viability (ATP), % of control 106; inactive.
Against Slc25a27 #2 the deposit lists GFP, % of control 74.5; viability (ATP), % of control 75.3; inactive.
Knock-down of Slc25a27 #3 gave: GFP, % of control 67.8; viability (ATP), % of control 95.8; inactive.
After knock-down of Fto #1, the screen gave GFP, % of control 65.7; viability (ATP), % of control 74.4; inactive.
Against Fto #2, the values are GFP, % of control 97.9; viability (ATP), % of control 81.4; inactive.
Depletion of Fto #3 came out at: GFP, % of control 52.4; viability (ATP), % of control 79; inactive.
After knock-down of A630091E08Rik #1, the record shows GFP, % of control 69.8; viability (ATP), % of control 59.4; inactive.
Against A630091E08Rik #2, the entry reads GFP, % of control 99.9; viability (ATP), % of control 80.5; inactive.
With knock-down of A630091E08Rik #3, the screen gave GFP, % of control 84.6; viability (ATP), % of control 99.6; inactive.
Kif4 #1 scored GFP, % of control 145; viability (ATP), % of control 86.3; active.
Kif4 #2 scored GFP, % of control 94.4; viability (ATP), % of control 95.2; inactive.
Depletion of Prpf4 #1 gave: GFP, % of control 77.4; viability (ATP), % of control 79.5; inactive.
Silencing of Prpf4 #2 gave: GFP, % of control 49.1; viability (ATP), % of control 84.8; inactive.
Silencing of Prpf4 #3 gave: GFP, % of control 60.5; viability (ATP), % of control 76.6; inactive.
Slco1a5 #1 scored GFP, % of control 133; viability (ATP), % of control 67.1; active.
Silencing of Slco1a5 #2 gave: GFP, % of control 78.3; viability (ATP), % of control 84.5; inactive.
Silencing of Slco1a5 #3 resulted in: GFP, % of control 67.6; viability (ATP), % of control 91.6; inactive.

Records above whose gene name starts with F or f:
Fto #1 → GFP, % of control = 65.7; viability (ATP), % of control = 74.4; outcome = inactive
Fto #2 → GFP, % of control = 97.9; viability (ATP), % of control = 81.4; outcome = inactive
Fto #3 → GFP, % of control = 52.4; viability (ATP), % of control = 79; outcome = inactive
